Measurements: US20240067639A1, “SMALL MOLECULES THAT TARGET THE RNA THAT CAUSES ALS” (EXPANSION THERAPEUTICS, INC., priority 2020, published 2024)
At least one structure is not confirmed: it was looked up by name or label, or the drawing left a doubt.

target: biotinylated r(G4C2)8 RNA and hnRNP H1-His6; assay: TR-FRET hnRNP H binding assay; conditions: Table D
Method: TR-FRET hnRNP H Binding Assay. The TR-FRET assays were performed as previously described (Disney et al., 2012) except the final concentrations of biotinylated r(G4C2)8 (SEQ ID NO: 2) RNA and hnRNP H1-His6 were 80 nM and 75 nM, respectively. The RNA was folded by heating to 95° C. for 5 min in 1× Folding Buffer followed by slowly cooling to room temperature. The buffer was adjusted to 1×TR-FRET Assay Buffer followed by addition of compound. The mixture was incubated for 15 min at room temperature and then hnRNP H1-His6 was added. After an additional 15 min incubation, streptavidin-XL665 (HTRF, Cisbio Bioassays) and anti-His6-Tb (HTRF, Cisbio Bioassays) were added to a final concentration of 40 nM and 0.44 ng/μL, respectively. After incubating for 1 h, TR-FRET was measured as previously described. The IC50s were either calculated by fitting the equation (1) in Graphpad Prism.

Row | Compound | Ki [µM]
1 | Cc1c2ccncc2cc2c3cc(C(=O)N4CCNCC4)ccc3n(C)c12 [Example 72, (5,6-dimethyl-6H-pyrido[4,3-b]carbazol-9-yl)(piperazin-1-yl)methanone] | 15
2 | Cc1c2ccncc2cc2c3cc(C(=O)NCCN)ccc3n(C)c12 [Example 74, N-(2-aminoethyl)-5,6-dimethyl-6H-pyrido[4,3-b]carbazole-9-carboxamide] | 2.5
3 | Cc1c2ccncc2cc2c3cc(OCCN4CCCC4)ccc3n(C)c12 [Compound 7, 5,6-dimethyl-9-(2-(pyrrolidin-1-yl)ethoxy)-6H-pyrido[4,3-b]carbazole] | 12
4 | COCCNC(=O)c1ccc2c(c1)c1cc3cnccc3c(C)c1n2C [Example 79, N-(2-methoxyethyl)-5,6-dimethyl-6H-pyrido[4,3-b]carbazole-9-carboxamide] | 12
